{"source": "patent EP1227812B1", "about": "“TOPICAL NASAL TREATMENT USING DESLORATADINE AND MOMETASONE FUROATE” (SCHERING CORPORATION, priority 1999, dated 2001)", "test_system": "histamine-induced vascular permeability increases in nasal mucosa", "conditions": "for % Inhibition: percent inhibition of vasopermeability vs vehicle, mean, 10 min before 1 mM histamine perfusion", "note": "Read-outs that look alike come from different tables or passages of the source."}
{"smiles": "Clc1ccc2c(c1)CCc1cccnc1C2=C1CCNCC1", "note": "[Desloratadine, desloratadine]", "values": [{"measurement": "activity in this test relative to loratadine", "setting": "comparison of desloratadine with loratadine", "value": "approximately an order of magnitude more active"}, {"measurement": "% Inhibition", "setting": "dose 0.1 µg instilled into the nares", "value": 0, "unit": "%"}, {"measurement": "% Inhibition", "setting": "dose 0.3 µg instilled into the nares", "value": 36, "unit": "%"}, {"measurement": "% Inhibition", "setting": "dose 1 µg instilled into the nares", "value": 50, "unit": "%"}, {"measurement": "% Inhibition", "setting": "dose 3 µg instilled into the nares", "value": 69, "unit": "%"}, {"measurement": "% Inhibition", "setting": "dose 10 µg instilled into the nares", "value": 56, "unit": "%"}]}
